PubChem BioAssay AID1508597 | Cure First | 2020
This is an unselected part of the about 2,100 reagents, under one of the conditions tested. 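Calls flag viability under 80% in either arm, not effects specific to rucaparib; the reference for percent is not stated.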 Unmarked entries are inactive. Some reagents were tested in more than one well and are listed for each. Reagent sequences are not shown. The record does not give: the 100% reference.

- Screen: 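Genes whose silencing sensitises or protects ovarian cancer cells against rucaparib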 (primary screen)
- Cell system: human ovarian carcinoma lines grown from tumours: OCI-P5x (papillary serous) and OCI-C5x (clear cell)
- Reagents: siRNA pool against human genes, 1.25 pmol siRNA per well
- Time to read-out: 72 h or 96 h, depending on the cell culture
- Treatment: rucaparib 20 µM (about IC30) or vehicle, present until read-out
- Rucaparib or vehicle: Rucaparib
- Cell line: OCI-C5x (clear cell)
- Measured: 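Luminescent ATP-based viability assay read 72 or 96 h after transfection, depending on culture, given as normalised percent viability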
- Direction: viability, normalised: higher = more viable cells remaining
- Hit rule: 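a well counts as a hit if its normalised viability is under 80 percent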
- Meaning of the calls: active = viability under 80%; inactive = viability 80% or more

gene symbol	technical replicate	viability, normalised (%)
DPYD (dihydropyrimidine dehydrogenase)	1	51.1 (active)
DPYD (dihydropyrimidine dehydrogenase)	2	69.4 (active)
DPYD (dihydropyrimidine dehydrogenase)	3	64.9 (active)
TDRD6 (tudor domain containing 6)	1	65.2 (active)
TDRD6 (tudor domain containing 6)	2	54.2 (active)
TDRD6 (tudor domain containing 6)	3	42.5 (active)
SOD2 (superoxide dismutase 2)	1	45.2 (active)
SOD2 (superoxide dismutase 2)	2	34.7 (active)
SOD2 (superoxide dismutase 2)	3	54 (active)
TSPYL4 (TSPY like 4)	1	57.9 (active)
TSPYL4 (TSPY like 4)	2	48.9 (active)
TSPYL4 (TSPY like 4)	3	31.9 (active)
GDE1 (glycerophosphodiester phosphodiesterase 1)	1	43 (active)
GDE1 (glycerophosphodiester phosphodiesterase 1)	2	43.9 (active)
GDE1 (glycerophosphodiester phosphodiesterase 1)	3	29.6 (active)
ING1 (inhibitor of growth family member 1)	1	57.2 (active)
ING1 (inhibitor of growth family member 1)	2	49.9 (active)
ING1 (inhibitor of growth family member 1)	3	57.1 (active)
MYBL2 (MYB proto-oncogene like 2)	1	51.6 (active)
MYBL2 (MYB proto-oncogene like 2)	2	42.7 (active)
MYBL2 (MYB proto-oncogene like 2)	3	39.9 (active)
PHF20 (PHD finger protein 20)	1	55.8 (active)
PHF20 (PHD finger protein 20)	2	40.7 (active)
PHF20 (PHD finger protein 20)	3	35.5 (active)

Next part, starting with the last 2 of the part before.
gene symbol	technical replicate	viability, normalised (%)
PHF20 (PHD finger protein 20)	2	40.7 (active)
PHF20 (PHD finger protein 20)	3	35.5 (active)
PCDHB9 (protocadherin beta 9)	1	49.4 (active)
PCDHB9 (protocadherin beta 9)	2	56.8 (active)
PCDHB9 (protocadherin beta 9)	3	44.8 (active)
HDAC10 (histone deacetylase 10)	1	46.9 (active)
HDAC10 (histone deacetylase 10)	2	39.2 (active)
HDAC10 (histone deacetylase 10)	3	48.6 (active)
RBBP8 (RB binding protein 8, endonuclease)	1	54.9 (active)
RBBP8 (RB binding protein 8, endonuclease)	1	37.7 (active)
RBBP8 (RB binding protein 8, endonuclease)	2	50.7 (active)
RBBP8 (RB binding protein 8, endonuclease)	2	35.9 (active)
RBBP8 (RB binding protein 8, endonuclease)	3	36.7 (active)
RBBP8 (RB binding protein 8, endonuclease)	3	50.2 (active)
ESRRB (estrogen related receptor beta)	1	67.9 (active)
ESRRB (estrogen related receptor beta)	2	56.8 (active)
ESRRB (estrogen related receptor beta)	3	61.4 (active)
